{"source": "paper PMC2410169", "about": "“N-hexanoyl-sphingomyelin potentiates in vitro doxorubicin cytotoxicity by enhancing its cellular influx” (British Journal of Cancer, 2004)", "system": "BAEC", "assay": "Sphingomyelin quantification in cells and detergent-resistant membrane fractions", "assay_type": "cell-based, bovine", "conditions": "for Lipid content, Total: initial Triton X-100 suspension", "data": [{"smiles": "CCCCCCCCCCCCCC=CC(O)C(COP(=O)([O-])OCC[N+](C)(C)C)NC(=O)CCCCC", "note": "(centres unmarked) [C6-SM, N-hexanoyl-sphingomyelin]", "values": [{"measurement": "Fraction of the total added amount of C6-SM taken up by cells", "setting": "10 μM C6-SM, within 60 min", "value": "~1.5", "unit": "%"}, {"measurement": "Lipid content, Total", "setting": "BAEC incubated 60 min with 10 μM C6-SM, n=3", "value": "1.81±0.47 nmol mg^−1 of total cellular p"}, {"measurement": "Lipid content, Total", "setting": "BAEC incubated 60 min with 10 μM C6-SM, n=3, listed as Inserted C6-SM", "value": "1.81±0.47 nmol mg^−1 of total cellular protein"}, {"measurement": "Lipid content, non-DRM", "setting": "BAEC incubated 60 min with 10 μM C6-SM, lower half of sucrose gradient, n=3", "value": "1.16±0.56 nmol mg^−1 of total cellular protein"}, {"measurement": "Lipid content, DRM", "setting": "BAEC incubated 60 min with 10 μM C6-SM, upper half of sucrose gradient, n=3", "value": "0.22±0.17 nmol mg^−1 of total cellular protein"}]}]}
